From article PMC6947505
Read-outs that look alike come from different tables or passages of the source. Results are given in words; binding and its absence hold for the method and conditions named. In cells and extracts the contact can be indirect. Some entries that bind do so weakly or less than the wild type. For part of these data: Tags and fused reporters may be left off the sequences shown. Values belong to the molecule of their own block, whether it stands above or below them.

What was measured:
[1] = molecular target: T1, HA-p52 (UniProt Q00653); assay: co-IP; extracts of HEK293T cells transfected with tagged constructs; in some panels treated with EBSS and Baf
T1 sequence: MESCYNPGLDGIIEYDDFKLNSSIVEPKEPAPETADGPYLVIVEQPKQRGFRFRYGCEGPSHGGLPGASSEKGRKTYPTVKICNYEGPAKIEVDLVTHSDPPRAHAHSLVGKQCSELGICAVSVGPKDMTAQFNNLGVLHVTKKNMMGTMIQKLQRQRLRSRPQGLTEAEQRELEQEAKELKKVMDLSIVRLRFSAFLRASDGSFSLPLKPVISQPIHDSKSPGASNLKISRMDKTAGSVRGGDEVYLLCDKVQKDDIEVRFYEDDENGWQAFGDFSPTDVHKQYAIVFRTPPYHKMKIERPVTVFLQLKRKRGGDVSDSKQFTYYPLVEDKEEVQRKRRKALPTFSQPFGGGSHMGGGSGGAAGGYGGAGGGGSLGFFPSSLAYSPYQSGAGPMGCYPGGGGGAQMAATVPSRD

[2] = molecular target: T2, HA-p100 (UniProt Q00653); assay: as above
T2 sequence: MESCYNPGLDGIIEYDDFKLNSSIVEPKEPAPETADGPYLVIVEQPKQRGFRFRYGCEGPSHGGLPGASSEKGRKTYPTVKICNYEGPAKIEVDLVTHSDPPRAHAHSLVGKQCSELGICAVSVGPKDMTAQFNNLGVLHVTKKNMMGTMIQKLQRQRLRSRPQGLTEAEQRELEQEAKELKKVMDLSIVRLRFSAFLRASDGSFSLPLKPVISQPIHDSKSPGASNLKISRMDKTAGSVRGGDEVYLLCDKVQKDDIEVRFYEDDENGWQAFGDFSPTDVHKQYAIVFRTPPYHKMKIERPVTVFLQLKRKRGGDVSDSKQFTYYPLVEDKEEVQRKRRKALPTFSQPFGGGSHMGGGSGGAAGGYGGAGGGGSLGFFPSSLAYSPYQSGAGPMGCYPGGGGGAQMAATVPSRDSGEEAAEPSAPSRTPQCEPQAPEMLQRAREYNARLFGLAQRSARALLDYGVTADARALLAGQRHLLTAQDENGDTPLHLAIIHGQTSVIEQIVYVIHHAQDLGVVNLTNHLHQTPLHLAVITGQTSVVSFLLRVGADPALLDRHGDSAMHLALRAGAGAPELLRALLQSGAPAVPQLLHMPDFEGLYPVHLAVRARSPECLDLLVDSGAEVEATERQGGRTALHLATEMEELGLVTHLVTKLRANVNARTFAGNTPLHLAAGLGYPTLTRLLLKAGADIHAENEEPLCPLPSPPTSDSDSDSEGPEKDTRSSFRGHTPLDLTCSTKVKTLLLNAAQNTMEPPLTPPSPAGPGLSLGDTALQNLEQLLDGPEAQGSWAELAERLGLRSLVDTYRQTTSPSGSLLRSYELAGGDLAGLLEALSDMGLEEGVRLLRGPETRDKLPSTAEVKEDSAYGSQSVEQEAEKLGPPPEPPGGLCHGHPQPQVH

[3] = molecular target: T3, Flag-p52 (1–415 aa) (UniProt Q00653); assay: as above
T3 sequence: T1 sequence

[4] = molecular target: T4, Flag-p100 (FL) (UniProt Q00653); assay: as above
T4 sequence: T2 sequence

[5] = molecular target: T2, HA-p100; assay: as above; remark: listed apart in the source
[6] = molecular target: T5, p100 (endogenous, mouse BMDMs) (mouse (endogenous in BMDMs)) (UniProt Q9WTK5); assay: co-IP; endogenous proteins; extracts of HeLa, THP-1, BMDMs or PBMCs treated with different stimuli (TNFα, EBSS); WT BMDMs compared with Trim14−/− BMDMs
T5 sequence: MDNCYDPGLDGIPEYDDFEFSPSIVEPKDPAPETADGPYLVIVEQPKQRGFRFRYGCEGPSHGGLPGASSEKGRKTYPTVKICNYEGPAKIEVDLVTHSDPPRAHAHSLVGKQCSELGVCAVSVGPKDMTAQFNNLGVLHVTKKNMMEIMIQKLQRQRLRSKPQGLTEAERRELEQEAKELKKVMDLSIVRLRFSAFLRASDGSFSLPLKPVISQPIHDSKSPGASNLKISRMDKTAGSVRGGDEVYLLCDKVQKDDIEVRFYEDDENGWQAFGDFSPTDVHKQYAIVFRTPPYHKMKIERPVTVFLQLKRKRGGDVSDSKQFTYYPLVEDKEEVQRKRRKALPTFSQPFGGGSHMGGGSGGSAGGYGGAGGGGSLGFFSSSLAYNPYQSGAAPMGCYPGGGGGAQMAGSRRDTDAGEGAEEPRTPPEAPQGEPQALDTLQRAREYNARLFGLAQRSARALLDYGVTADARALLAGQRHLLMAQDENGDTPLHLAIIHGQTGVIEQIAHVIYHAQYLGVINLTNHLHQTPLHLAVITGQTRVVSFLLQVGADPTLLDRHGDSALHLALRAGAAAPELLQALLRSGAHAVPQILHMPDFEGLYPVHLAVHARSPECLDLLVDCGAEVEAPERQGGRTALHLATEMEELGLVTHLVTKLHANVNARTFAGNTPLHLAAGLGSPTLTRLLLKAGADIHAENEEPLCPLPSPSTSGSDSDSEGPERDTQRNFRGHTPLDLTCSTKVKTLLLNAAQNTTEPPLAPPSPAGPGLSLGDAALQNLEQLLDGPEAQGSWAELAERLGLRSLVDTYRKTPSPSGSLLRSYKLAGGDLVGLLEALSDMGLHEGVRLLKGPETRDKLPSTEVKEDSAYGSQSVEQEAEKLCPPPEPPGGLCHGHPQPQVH

[7] = molecular target: T6, p100 (endogenous, human cells) (human (endogenous in HeLa, THP-1, PBMCs)) (UniProt Q00653); assay: as above
T6 sequence: T2 sequence

[8] = molecular target: T3, Flag-p52 (1–415 aa); assay: co-IP; extracts of HEK293T cells transfected with tagged constructs; in some panels treated with EBSS and Baf; remark: listed apart in the source
[9] = molecular target: T4, Flag-p100 (FL); assay: as above; remark: listed apart in the source
[10] = molecular target: T7, p100 (as in the supplementary figures, tag not shown) (UniProt Q00653); assay: co-IP; Figure S3A; cells and constructs not shown
T7 sequence: T2 sequence

[11] = molecular target: T8, p52 (as in the supplementary figures, tag not shown) (UniProt Q00653); assay: co-IP; Figure S3A; cells and constructs not shown
T8 sequence: T1 sequence

- binding [1]: binds
- binding [2]: binds
Molecule: Flag-p62 (from UniProt Q13501 1-440)

- binding [3]: binds
- binding [4]: binds
Molecule: Flag-/Myc-p62 (from UniProt Q13501 1-440)

- binding [5]: binds
B1: Flag-NDP52 (protein, UniProt Q13137 1-446)
chain: MEETIKDPPTSAVLLDHCHFSQVIFNSVEKFYIPGGDVTCHYTFTQHFIPRRKDWIGIFRVGWKTTREYYTFMWVTLPIDLNNKSAKQQEVQFKAYYLPKDDEYYQFCYVDEDGVVRGASIPFQFRPENEEDILVVTTQGEVEEIEQHNKELCKENQELKDSCISLQKQNSDMQAELQKKQEELETLQSINKKLELKVKEQKDYWETELLQLKEQNQKMSSENEKMGIRVDQLQAQLSTQEKEMEKLVQGDQDKTEQLEQLKKENDHLFLSLTEQRKDQKKLEQTVEQMKQNETTAMKKQQELMDENFDLSKRLSENEIICNALQRQKERLEGENDLLKRENSRLLSYMGLDFNSLPYQVPTSDEGGARQNPGLAYGNPYSGIQESSSPSPLSIKKCPICKADDICDHTLEQQQMQPLCFNCPICDKIFPATEKQIFEDHVFCHSL

- binding [6]: binds
B2: TRIM14 (endogenous, mouse BMDMs) (protein, UniProt Q8BVW3 1-440)
chain: MASETTEARAPFQPDGAYGWRCPEHSERPAELFCRRCGRCVCALCPVLGAHRGHPVGLAEEEAVRVQKLIQDCLECLATKKRQHADNIAHLEDAGERLKVYADSSKAWLTQKFTELRLLLDEEEVLAKKFIDKSTQLTLQVYREQAETCGKQIEVMDDFSTRVWGIGQEPNPVQLLQAYIATKTEMGQQMSPSELSHPVPLSFEPVKNFFKEFVEAIGNTLQTPMDTRLKENINCQLSNSSSTKPGALLKTSPSPERALFLKYARTPTLDPDTMHARLRLSPDGLTVRCSLLGRLGPRPAPRFDALRQVLGRDGFAAGRHYWEVDVQEAGVGWWVGAAYPSLRRRGASAAARLGCNRESWCVKRYDLEYWAFHDGQRSRLRPRRDPHRLGVFLDYEAGILAFYDVAGGMSHLHTFHAAFQEPLYPALRLWEGPISIPRLP

- binding [7]: binds
B3: TRIM14 (endogenous, human cells) (protein, UniProt Q14142 1-442)
chain: MAGAATGSRTPGRSELVEGCGWRCPEHGDRVAELFCRRCRRCVCALCPVLGAHRGHPVGLALEAAVHVQKLSQECLKQLAIKKQQHIDNITQIEDATEKLKANAESSKTWLKGKFTELRLLLDEEEALAKKFIDKNTQLTLQVYREQADSCREQLDIMNDLSNRVWSISQEPDPVQRLQAYTATEQEMQQQMSLGELCHPVPLSFEPVKSFFKGLVEAVESTLQTPLDIRLKESINCQLSDPSSTKPGTLLKTSPSPERSLLLKYARTPTLDPDTMHARLRLSADRLTVRCGLLGSLGPVPVLRFDALWQVLARDCFATGRHYWEVDVQEAGAGWWVGAAYASLRRRGASAAARLGCNRQSWCLKRYDLEYWAFHDGQRSRLRPRDDLDRLGVFLDYEAGVLAFYDVTGGMSHLHTFRATFQEPLYPALRLWEGAISIPRLP

- binding [8]: binds
- binding [9]: binds
B4: HA-TRIM14 (protein, UniProt Q14142 1-442)
chain: B3 chain

- binding [9]: binds
B5: Myc-TRIM14 (FL) (protein, UniProt Q14142 1-442)
chain: B3 chain

- binding [10]: binds
- binding [11]: binds
B6: TRIM14 (construct of the supplementary figures, tag not shown) (protein, UniProt Q14142 1-442)
chain: B3 chain
